Test results reported in the supplement of paper PMC12823440, “Inhibitors supercharge kinase turnover through native proteolytic circuits” (Nature, 2025).
Where a name gives a salt, the structure may show the parent alone. The list shows a part of the results. The calls rarely recur for the same compound in another form.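 Kinases, fused to nanoluciferase, were expressed in K562 cells; luminescence was measured every 4 h from 2 to 18 h as percent of control (DMSO = 100%, positive control = 0%). A time point is decreased if signal falls significantly (2 sigma). Hits were called by the authors by a rule that is not shown; the count of time points alone does not decide it.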

Chains of the proteins cited; added tags and fusions are not shown. Lines headed by an entry give the natural chain unless they say otherwise; changes in a name come on top.
UniProt P00519, whole entry: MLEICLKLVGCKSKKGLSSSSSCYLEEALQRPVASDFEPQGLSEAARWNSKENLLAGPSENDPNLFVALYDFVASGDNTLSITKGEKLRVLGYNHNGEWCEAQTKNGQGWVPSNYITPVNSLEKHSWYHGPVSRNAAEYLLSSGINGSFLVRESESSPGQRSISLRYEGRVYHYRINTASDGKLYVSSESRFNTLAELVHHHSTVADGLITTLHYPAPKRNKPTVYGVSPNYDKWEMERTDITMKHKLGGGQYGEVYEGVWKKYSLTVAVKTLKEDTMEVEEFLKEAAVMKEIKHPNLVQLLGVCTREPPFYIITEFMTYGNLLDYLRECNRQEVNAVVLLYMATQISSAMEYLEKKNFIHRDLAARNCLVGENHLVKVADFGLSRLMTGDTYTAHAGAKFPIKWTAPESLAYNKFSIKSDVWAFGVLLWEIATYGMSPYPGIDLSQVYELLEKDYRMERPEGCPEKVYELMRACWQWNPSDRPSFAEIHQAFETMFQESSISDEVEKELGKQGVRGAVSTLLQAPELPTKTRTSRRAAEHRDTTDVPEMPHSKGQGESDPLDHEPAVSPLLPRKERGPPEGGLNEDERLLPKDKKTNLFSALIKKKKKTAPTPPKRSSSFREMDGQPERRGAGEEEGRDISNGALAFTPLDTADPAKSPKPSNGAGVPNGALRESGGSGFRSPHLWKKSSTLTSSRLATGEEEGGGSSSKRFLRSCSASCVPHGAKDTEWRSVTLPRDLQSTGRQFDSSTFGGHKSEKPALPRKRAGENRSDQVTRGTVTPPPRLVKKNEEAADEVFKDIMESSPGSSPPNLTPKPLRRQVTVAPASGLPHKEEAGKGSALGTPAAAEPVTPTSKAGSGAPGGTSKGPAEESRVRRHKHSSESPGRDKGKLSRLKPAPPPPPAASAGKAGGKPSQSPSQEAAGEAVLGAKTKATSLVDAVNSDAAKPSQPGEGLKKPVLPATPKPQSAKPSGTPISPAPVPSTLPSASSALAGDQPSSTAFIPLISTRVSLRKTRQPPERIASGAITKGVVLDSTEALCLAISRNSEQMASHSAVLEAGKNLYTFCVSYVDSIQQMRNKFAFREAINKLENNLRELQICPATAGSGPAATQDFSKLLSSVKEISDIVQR
UniProt P31749: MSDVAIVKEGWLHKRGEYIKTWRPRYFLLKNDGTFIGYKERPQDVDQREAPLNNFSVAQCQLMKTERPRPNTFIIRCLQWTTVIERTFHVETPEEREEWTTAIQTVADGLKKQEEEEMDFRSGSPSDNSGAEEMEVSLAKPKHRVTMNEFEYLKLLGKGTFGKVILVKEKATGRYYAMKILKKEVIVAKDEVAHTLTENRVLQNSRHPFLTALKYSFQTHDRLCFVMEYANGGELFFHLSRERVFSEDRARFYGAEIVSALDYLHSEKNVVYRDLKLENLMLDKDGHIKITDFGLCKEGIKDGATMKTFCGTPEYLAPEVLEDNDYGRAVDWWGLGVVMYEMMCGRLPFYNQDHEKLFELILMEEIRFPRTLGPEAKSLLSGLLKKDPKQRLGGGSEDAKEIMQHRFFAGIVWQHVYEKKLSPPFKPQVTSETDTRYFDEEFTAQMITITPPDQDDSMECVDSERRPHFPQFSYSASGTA
UniProt Q9UM73: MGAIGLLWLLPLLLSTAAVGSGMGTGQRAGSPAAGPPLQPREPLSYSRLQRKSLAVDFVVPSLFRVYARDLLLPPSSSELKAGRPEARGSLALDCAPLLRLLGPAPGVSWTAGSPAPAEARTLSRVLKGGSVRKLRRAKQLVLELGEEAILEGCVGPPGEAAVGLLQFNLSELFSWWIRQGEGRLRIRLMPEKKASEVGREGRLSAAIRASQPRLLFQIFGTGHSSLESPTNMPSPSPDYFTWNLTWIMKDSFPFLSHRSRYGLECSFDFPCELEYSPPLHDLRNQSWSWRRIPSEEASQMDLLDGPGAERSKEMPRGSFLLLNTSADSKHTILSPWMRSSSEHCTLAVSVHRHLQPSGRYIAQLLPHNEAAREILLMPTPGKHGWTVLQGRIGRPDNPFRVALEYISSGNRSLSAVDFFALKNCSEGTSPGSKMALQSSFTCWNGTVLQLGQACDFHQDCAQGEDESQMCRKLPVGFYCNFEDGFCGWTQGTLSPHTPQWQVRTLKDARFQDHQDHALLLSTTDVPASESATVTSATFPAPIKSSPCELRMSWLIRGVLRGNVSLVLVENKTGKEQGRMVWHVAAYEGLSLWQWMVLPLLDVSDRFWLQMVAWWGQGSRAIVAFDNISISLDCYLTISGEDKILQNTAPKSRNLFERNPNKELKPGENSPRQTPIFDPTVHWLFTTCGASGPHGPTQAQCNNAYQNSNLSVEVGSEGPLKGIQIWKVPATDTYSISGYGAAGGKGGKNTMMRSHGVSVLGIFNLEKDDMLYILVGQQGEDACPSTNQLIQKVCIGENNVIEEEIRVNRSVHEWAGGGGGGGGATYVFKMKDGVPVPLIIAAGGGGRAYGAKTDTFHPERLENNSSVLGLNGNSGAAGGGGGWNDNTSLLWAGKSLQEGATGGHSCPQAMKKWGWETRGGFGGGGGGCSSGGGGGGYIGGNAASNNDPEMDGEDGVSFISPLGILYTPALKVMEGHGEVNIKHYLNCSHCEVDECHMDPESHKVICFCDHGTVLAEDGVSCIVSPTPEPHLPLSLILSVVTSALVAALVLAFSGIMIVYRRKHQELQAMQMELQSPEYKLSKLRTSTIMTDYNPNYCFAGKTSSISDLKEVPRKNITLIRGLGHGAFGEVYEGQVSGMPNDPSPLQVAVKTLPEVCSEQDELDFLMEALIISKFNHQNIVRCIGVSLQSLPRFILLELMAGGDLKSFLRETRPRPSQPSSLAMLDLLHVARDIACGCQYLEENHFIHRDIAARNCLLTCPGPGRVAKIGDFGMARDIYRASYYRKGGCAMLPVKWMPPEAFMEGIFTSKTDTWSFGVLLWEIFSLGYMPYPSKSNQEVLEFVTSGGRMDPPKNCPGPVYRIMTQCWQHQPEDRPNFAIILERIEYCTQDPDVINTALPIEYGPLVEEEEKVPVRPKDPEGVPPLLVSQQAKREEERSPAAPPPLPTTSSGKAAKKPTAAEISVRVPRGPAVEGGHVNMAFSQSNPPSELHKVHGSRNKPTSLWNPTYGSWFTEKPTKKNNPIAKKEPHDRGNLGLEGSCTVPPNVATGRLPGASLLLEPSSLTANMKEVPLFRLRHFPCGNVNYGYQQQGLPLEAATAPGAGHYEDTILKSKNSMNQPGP
UniProt P10398: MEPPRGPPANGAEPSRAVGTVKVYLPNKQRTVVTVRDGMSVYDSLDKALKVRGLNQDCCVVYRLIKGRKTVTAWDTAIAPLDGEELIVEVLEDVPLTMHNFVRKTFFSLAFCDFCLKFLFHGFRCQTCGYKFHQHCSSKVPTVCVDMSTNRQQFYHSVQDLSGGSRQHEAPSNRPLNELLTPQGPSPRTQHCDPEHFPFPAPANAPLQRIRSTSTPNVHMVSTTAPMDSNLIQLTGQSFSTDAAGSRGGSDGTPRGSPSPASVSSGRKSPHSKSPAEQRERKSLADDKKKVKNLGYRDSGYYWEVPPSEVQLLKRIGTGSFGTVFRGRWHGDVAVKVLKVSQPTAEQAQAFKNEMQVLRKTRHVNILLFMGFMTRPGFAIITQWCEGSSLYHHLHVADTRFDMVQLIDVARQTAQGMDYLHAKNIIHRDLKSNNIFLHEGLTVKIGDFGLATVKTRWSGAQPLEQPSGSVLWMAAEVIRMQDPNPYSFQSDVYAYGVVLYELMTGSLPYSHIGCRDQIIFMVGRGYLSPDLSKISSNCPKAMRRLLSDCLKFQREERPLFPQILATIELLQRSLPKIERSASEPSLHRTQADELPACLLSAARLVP
UniProt O14965: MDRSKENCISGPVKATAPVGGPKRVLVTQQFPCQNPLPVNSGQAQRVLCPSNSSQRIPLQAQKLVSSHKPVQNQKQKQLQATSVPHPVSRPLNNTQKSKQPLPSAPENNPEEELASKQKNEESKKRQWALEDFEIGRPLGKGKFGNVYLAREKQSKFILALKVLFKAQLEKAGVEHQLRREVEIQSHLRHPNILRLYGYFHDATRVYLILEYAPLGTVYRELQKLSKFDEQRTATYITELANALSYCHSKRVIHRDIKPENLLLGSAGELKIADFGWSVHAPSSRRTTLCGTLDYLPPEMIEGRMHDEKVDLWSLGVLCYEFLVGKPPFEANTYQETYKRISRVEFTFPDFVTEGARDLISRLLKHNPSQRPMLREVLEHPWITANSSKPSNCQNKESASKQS
UniProt Q9UQB9: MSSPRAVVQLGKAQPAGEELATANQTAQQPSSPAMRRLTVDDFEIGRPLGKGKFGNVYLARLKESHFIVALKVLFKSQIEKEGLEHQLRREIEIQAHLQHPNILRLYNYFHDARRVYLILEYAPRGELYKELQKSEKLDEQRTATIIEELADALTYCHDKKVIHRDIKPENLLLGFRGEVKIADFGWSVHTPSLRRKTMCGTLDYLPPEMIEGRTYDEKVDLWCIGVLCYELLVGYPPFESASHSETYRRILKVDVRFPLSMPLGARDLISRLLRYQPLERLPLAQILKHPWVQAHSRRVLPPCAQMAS
UniProt P15056, whole entry, looked up: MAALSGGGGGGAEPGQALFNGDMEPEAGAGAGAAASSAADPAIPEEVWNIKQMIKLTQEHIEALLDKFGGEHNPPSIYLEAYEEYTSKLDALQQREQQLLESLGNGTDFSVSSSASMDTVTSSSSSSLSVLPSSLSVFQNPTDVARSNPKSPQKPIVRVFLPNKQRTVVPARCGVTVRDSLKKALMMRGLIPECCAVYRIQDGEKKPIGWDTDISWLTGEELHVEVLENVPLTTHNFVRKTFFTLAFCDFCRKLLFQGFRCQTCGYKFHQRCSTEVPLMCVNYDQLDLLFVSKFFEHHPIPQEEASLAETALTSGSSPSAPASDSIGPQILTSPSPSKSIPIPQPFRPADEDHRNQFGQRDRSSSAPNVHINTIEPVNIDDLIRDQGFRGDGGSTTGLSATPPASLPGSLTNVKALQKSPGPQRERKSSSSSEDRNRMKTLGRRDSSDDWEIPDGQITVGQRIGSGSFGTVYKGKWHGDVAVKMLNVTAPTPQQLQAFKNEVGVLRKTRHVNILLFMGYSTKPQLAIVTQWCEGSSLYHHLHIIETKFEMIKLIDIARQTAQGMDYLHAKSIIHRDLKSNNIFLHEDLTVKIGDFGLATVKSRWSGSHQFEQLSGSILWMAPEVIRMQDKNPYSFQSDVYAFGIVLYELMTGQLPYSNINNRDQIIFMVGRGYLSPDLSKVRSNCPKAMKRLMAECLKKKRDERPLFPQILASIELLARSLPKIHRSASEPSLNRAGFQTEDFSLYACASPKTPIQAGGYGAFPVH
UniProt Q9UQM7, whole entry: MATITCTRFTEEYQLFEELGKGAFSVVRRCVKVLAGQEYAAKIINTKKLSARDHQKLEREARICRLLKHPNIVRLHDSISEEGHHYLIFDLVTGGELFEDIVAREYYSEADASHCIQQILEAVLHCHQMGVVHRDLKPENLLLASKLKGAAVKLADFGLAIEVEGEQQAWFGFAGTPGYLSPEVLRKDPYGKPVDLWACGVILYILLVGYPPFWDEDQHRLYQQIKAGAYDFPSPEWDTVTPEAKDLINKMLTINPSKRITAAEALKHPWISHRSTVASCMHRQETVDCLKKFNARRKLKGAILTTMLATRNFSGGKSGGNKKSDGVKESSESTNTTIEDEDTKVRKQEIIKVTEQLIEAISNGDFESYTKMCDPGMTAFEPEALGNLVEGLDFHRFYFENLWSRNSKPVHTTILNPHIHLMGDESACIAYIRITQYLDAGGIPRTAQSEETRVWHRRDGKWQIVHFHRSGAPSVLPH
UniProt P11802: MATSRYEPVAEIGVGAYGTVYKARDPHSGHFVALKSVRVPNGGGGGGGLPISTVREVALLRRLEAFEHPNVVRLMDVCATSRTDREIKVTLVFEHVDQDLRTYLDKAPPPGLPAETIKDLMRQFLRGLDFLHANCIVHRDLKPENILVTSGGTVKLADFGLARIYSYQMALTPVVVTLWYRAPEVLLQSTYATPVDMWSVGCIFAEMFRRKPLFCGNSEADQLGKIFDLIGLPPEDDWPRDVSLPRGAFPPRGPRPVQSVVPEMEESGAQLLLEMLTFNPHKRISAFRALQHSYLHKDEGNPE
UniProt Q00534, whole entry: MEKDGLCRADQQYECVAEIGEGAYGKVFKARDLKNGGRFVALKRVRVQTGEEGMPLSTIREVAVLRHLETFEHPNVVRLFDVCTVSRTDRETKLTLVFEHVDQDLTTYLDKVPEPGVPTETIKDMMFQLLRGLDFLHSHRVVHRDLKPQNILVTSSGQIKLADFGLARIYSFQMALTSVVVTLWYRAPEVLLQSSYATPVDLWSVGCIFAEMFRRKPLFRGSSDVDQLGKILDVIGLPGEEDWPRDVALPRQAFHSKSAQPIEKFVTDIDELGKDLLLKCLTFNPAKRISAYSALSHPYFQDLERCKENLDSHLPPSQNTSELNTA

Columns and labels:
Test in all cases: kinase-Nluc reporter destabilization hit call (1 = scored as downregulated) (binary); higher = compound decreases kinase abundance
Details in all cases: K562; 2-18 h
ABL1 = ABL1 (UniProt P00519)
AKT1 = AKT1 (UniProt P31749)
ALK = ALK (UniProt Q9UM73)
ARAF = ARAF (UniProt P10398)
AURKA = AURKA (UniProt O14965)
AURKB = AURKB (UniProt Q96GD4)
AURKC = AURKC (UniProt Q9UQB9)
BLK = BLK (UniProt P51451)
BMX = BMX (UniProt P51813)
BRAF = BRAF (UniProt P15056)
BRAF_V600E = system: BRAF_V600E
BTK = BTK (UniProt Q06187)
CAMK2A = CAMK2A (UniProt Q9UQM7)
CAMK2G = CAMK2G (UniProt Q13555)
CDK10 = CDK10 (UniProt Q15131)
CDK2 = CDK2 (UniProt P24941)
CDK3 = CDK3 (UniProt Q00526)
CDK4 = CDK4 (UniProt P11802)
CDK5 = CDK5 (UniProt Q00535)
CDK6 = CDK6 (UniProt Q00534)

| SMILES | kinase-Nluc reporter destabilization hit call (ABL1) | kinase-Nluc reporter destabilization hit call (AKT1) | kinase-Nluc reporter destabilization hit call (ALK) | kinase-Nluc reporter destabilization hit call (ARAF) | kinase-Nluc reporter destabilization hit call (AURKA) | kinase-Nluc reporter destabilization hit call (AURKB) | kinase-Nluc reporter destabilization hit call (AURKC) | kinase-Nluc reporter destabilization hit call (BLK) | kinase-Nluc reporter destabilization hit call (BMX) | kinase-Nluc reporter destabilization hit call (BRAF) | kinase-Nluc reporter destabilization hit call (BRAF_V600E) | kinase-Nluc reporter destabilization hit call (BTK) | kinase-Nluc reporter destabilization hit call (CAMK2A) | kinase-Nluc reporter destabilization hit call (CAMK2G) | kinase-Nluc reporter destabilization hit call (CDK10) | kinase-Nluc reporter destabilization hit call (CDK2) | kinase-Nluc reporter destabilization hit call (CDK3) | kinase-Nluc reporter destabilization hit call (CDK4) | kinase-Nluc reporter destabilization hit call (CDK5) | kinase-Nluc reporter destabilization hit call (CDK6) |
| --- | --- | --- | --- | --- | --- | --- | --- | --- | --- | --- | --- | --- | --- | --- | --- | --- | --- | --- | --- | --- |
| Cc1ccc(S(=O)(=O)Nc2ccccc2C=Nc2ccccc2NS(=O)(=O)c2ccc(C)cc2)cc1 (10 µM) | inactive: 0 | inactive: 0 | inactive: 0 | inactive: 0 | inactive: 0 | inactive: 0 | inactive: 0 | inactive: 0 | inactive: 0 | inactive: 0 | inactive: 0 | inactive: 0 | inactive: 0 | inactive: 0 | inactive: 0 | inactive: 0 | inactive: 0 | inactive: 0 | inactive: 0 | inactive: 0 |
| CC(C)(NS(=O)(=O)c1ccc2c(Cl)cnc(N=C(N)N)c2c1)C(=O)O (10 µM) | inactive: 0 | inactive: 0 | inactive: 0 | inactive: 0 | inactive: 0 | inactive: 0 | inactive: 0 | inactive: 0 | inactive: 0 | inactive: 0 | inactive: 0 | inactive: 0 | inactive: 0 | inactive: 0 | inactive: 0 | inactive: 0 | inactive: 0 | inactive: 0 | inactive: 0 | inactive: 0 |
| Nc1cc(Nc2ccc(S(N)(=O)=O)cc2)ncn1 (10 µM) | inactive: 0 | inactive: 0 | inactive: 0 | inactive: 0 | inactive: 0 | inactive: 0 | inactive: 0 | inactive: 0 | inactive: 0 | inactive: 0 | inactive: 0 | inactive: 0 | inactive: 0 | inactive: 0 | inactive: 0 | inactive: 0 | inactive: 0 | inactive: 0 | inactive: 0 | inactive: 0 |
| CCN(CC)S(=O)(=O)c1ccc(OC)c(N2CCN(C(=O)c3ccc(F)cc3C(F)(F)F)CC2)c1 (10 µM) | inactive: 0 | inactive: 0 | inactive: 0 | inactive: 0 | inactive: 0 | inactive: 0 | inactive: 0 | inactive: 0 | inactive: 0 | inactive: 0 | inactive: 0 | inactive: 0 | inactive: 0 | inactive: 0 | inactive: 0 | inactive: 0 | inactive: 0 | inactive: 0 | inactive: 0 | inactive: 0 |
| N#CC(c1ccnc(NCCc2cccnc2)n1)c1nc2ccccc2s1 (stereo not given) (10 µM) | inactive: 0 | inactive: 0 | inactive: 0 | inactive: 0 | inactive: 0 | inactive: 0 | inactive: 0 | inactive: 0 | inactive: 0 | active: 1 | inactive: 0 | inactive: 0 | inactive: 0 | inactive: 0 | inactive: 0 | inactive: 0 | inactive: 0 | inactive: 0 | inactive: 0 | inactive: 0 |
| Cc1ccc(-c2c(C(=O)CF)n(CCCO)c3ncnc(N)c23)cc1 (10 µM) | inactive: 0 | inactive: 0 | inactive: 0 | inactive: 0 | inactive: 0 | inactive: 0 | inactive: 0 | inactive: 0 | inactive: 0 | inactive: 0 | inactive: 0 | inactive: 0 | inactive: 0 | inactive: 0 | inactive: 0 | inactive: 0 | inactive: 0 | inactive: 0 | inactive: 0 | inactive: 0 |
| CC1CN(C(=O)Nc2ccc(Cl)c(Cl)c2)C(=Nc2ccc(F)cc2)S1 (stereo not given) (10 µM) | inactive: 0 | inactive: 0 | inactive: 0 | inactive: 0 | inactive: 0 | inactive: 0 | inactive: 0 | inactive: 0 | inactive: 0 | inactive: 0 | inactive: 0 | inactive: 0 | inactive: 0 | inactive: 0 | inactive: 0 | inactive: 0 | inactive: 0 | inactive: 0 | inactive: 0 | inactive: 0 |
| Cc1cc2cc(Nc3ccnc(Nc4ccc5[nH]c(C)cc5c4)n3)ccc2[nH]1 (2.5 µM) | inactive: 0 | inactive: 0 | inactive: 0 | inactive: 0 | inactive: 0 | inactive: 0 | inactive: 0 | inactive: 0 | inactive: 0 | inactive: 0 | inactive: 0 | inactive: 0 | inactive: 0 | inactive: 0 | inactive: 0 | inactive: 0 | inactive: 0 | inactive: 0 | inactive: 0 | inactive: 0 |
| O=C1Nc2nc(-c3c(O)cccc3OCC3CC3)cc([C@@H]3CCCNC3)c2CO1 [Bay 65-1942 (hydrochloride)] (10 µM) | inactive: 0 | inactive: 0 | inactive: 0 | inactive: 0 | inactive: 0 | inactive: 0 | inactive: 0 | inactive: 0 | inactive: 0 | inactive: 0 | inactive: 0 | inactive: 0 | inactive: 0 | inactive: 0 | inactive: 0 | inactive: 0 | inactive: 0 | inactive: 0 | inactive: 0 | inactive: 0 |
| O=C1c2ccc(Nc3ccc(F)cc3F)cc2CCc2ccc(OC[C@H](O)CO)cc21 [Skepinone-L] (2.5 µM) | inactive: 0 | inactive: 0 | inactive: 0 | inactive: 0 | inactive: 0 | inactive: 0 | inactive: 0 | inactive: 0 | inactive: 0 | inactive: 0 | inactive: 0 | inactive: 0 | inactive: 0 | inactive: 0 | inactive: 0 | inactive: 0 | inactive: 0 | inactive: 0 | inactive: 0 | inactive: 0 |
| O=[N+]([O-])c1cc(C(F)(F)F)cc([N+](=O)[O-])c1NNC(=S)Nc1ccc(F)cc1 (10 µM) | inactive: 0 | inactive: 0 | inactive: 0 | inactive: 0 | inactive: 0 | inactive: 0 | inactive: 0 | inactive: 0 | inactive: 0 | inactive: 0 | inactive: 0 | inactive: 0 | inactive: 0 | inactive: 0 | inactive: 0 | inactive: 0 | inactive: 0 | inactive: 0 | inactive: 0 | inactive: 0 |
| COC1(c2sc3c(N4CCOCC4)nc(-c4cnc(N)nc4)nc3c2C)COC1 (2.5 µM) | inactive: 0 | inactive: 0 | inactive: 0 | inactive: 0 | inactive: 0 | inactive: 0 | inactive: 0 | inactive: 0 | inactive: 0 | inactive: 0 | inactive: 0 | inactive: 0 | inactive: 0 | inactive: 0 | inactive: 0 | inactive: 0 | inactive: 0 | inactive: 0 | inactive: 0 | inactive: 0 |
| CC(C)CN[C@H]1CS(=O)(=O)C[C@@H]1S(=O)(=O)c1ccc(Cl)cc1 (10 µM) | inactive: 0 | inactive: 0 | inactive: 0 | inactive: 0 | inactive: 0 | inactive: 0 | inactive: 0 | inactive: 0 | inactive: 0 | inactive: 0 | inactive: 0 | inactive: 0 | inactive: 0 | inactive: 0 | inactive: 0 | inactive: 0 | inactive: 0 | inactive: 0 | inactive: 0 | inactive: 0 |
| COCCOc1ccc(-c2cn(-c3ccccc3)c3nc[nH]c(=O)c23)cc1 (10 µM) | inactive: 0 | inactive: 0 | inactive: 0 | inactive: 0 | inactive: 0 | inactive: 0 | inactive: 0 | inactive: 0 | inactive: 0 | inactive: 0 | inactive: 0 | inactive: 0 | inactive: 0 | inactive: 0 | inactive: 0 | inactive: 0 | inactive: 0 | inactive: 0 | inactive: 0 | inactive: 0 |
| CCn1c(-c2nonc2N)nc2cnc(Oc3cccc(NC(=O)c4ccc(OCCN5CCOCC5)cc4)c3)cc21 (10 µM) | inactive: 0 | inactive: 0 | inactive: 0 | inactive: 0 | inactive: 0 | inactive: 0 | inactive: 0 | inactive: 0 | active: 1 | inactive: 0 | inactive: 0 | inactive: 0 | inactive: 0 | inactive: 0 | inactive: 0 | inactive: 0 | inactive: 0 | inactive: 0 | inactive: 0 | inactive: 0 |
| CS(=O)(=O)c1ccc(-c2noc(C(F)(F)F)c2-c2ccccc2)cc1 (10 µM) | inactive: 0 | inactive: 0 | inactive: 0 | inactive: 0 | inactive: 0 | inactive: 0 | inactive: 0 | inactive: 0 | inactive: 0 | inactive: 0 | inactive: 0 | inactive: 0 | inactive: 0 | inactive: 0 | inactive: 0 | inactive: 0 | inactive: 0 | inactive: 0 | inactive: 0 | inactive: 0 |
| C[C@@H]1O[C@@H](O[C@H]2[C@H](Oc3cc(O)c4c(=O)cc(-c5ccc(O)cc5)oc4c3)O[C@H](CO)[C@@H](O)[C@@H]2O)[C@H](O)[C@H](O)[C@H]1O [Rhoifolin] (10 µM) | inactive: 0 | inactive: 0 | inactive: 0 | inactive: 0 | inactive: 0 | inactive: 0 | inactive: 0 | inactive: 0 | inactive: 0 | inactive: 0 | inactive: 0 | inactive: 0 | inactive: 0 | inactive: 0 | inactive: 0 | inactive: 0 | inactive: 0 | inactive: 0 | inactive: 0 | inactive: 0 |
| COc1cc(F)c(F)c(Nc2ccc(I)cc2F)c1NS(=O)(=O)C1(C[C@H](O)CO)CC1 [Refametinib] (10 µM) | inactive: 0 | inactive: 0 | inactive: 0 | inactive: 0 | inactive: 0 | inactive: 0 | inactive: 0 | inactive: 0 | inactive: 0 | inactive: 0 | inactive: 0 | inactive: 0 | inactive: 0 | inactive: 0 | inactive: 0 | inactive: 0 | inactive: 0 | inactive: 0 | inactive: 0 | inactive: 0 |

Taken from above:
Entry of O=C1c2ccc(Nc3ccc(F)cc3F)cc2CCc2ccc(OC[C@H](O)CO)cc21 [Skepinone-L] (2.5 µM) under kinase-Nluc reporter destabilization hit call (CDK10): inactive: 0
Entry of CC(C)(NS(=O)(=O)c1ccc2c(Cl)cnc(N=C(N)N)c2c1)C(=O)O (10 µM) under kinase-Nluc reporter destabilization hit call (AURKB): inactive: 0
